Record: PubChem BioAssay AID1259308 (NCATS, 2017)

Aim: 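Candidate targets for better recombinant protein yield in mammalian cells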 (primary screen)
Cells: human HEK293 embryonic kidney cells stably expressing firefly luciferase (HEK-CMV-Luc2-Hygro)
Knock-down reagent: single siRNA against human genes, 0.8 pmol siRNA per well
Duration: 72 h
Read-out: 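Luciferase light (ONE-Glo) measured on one replicate plate set and viability (CellTiter-Glo) on the other, scaled to a negative control siRNA, with robust z-scores and luciferase per cell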
Reading the numbers: total luciferase, z-score and total luciferase, % of control: higher = more reporter protein produced; luciferase per cell, z-score: higher = more reporter output per viable cell; viable cells, % of control: higher = more viable cells
Call rule: 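An siRNA counts as active if its total luciferase robust z-score exceeds 3; genes with two or more such siRNAs out of three were retested with fresh siRNAs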
Meaning of the calls: active = raised luciferase; inactive = no rise
The whole screen tested about 59,000 reagents; this is a part drawn at random. About 1,510 of them (2.6%) were called active. 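Calls use total luciferase alone and ignore viability, so some active siRNAs may act by altering cell number.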 Unmarked entries are inactive. Reagents against one gene are numbered here.

gene | siRNA no. | total luciferase, z-score | total luciferase, % of control | luciferase per cell, z-score | viable cells, % of control
CCR5 (C-C motif chemokine receptor 5) | 1 | -0.496 | 72 | -0.551 | 93
CCR5 (C-C motif chemokine receptor 5) | 2 | 0.0322 | 82.5 | 0.313 | 84.9
CCR5 (C-C motif chemokine receptor 5) | 3 | 0.542 | 92.7 | -0.181 | 109
PSMC1 (proteasome 26S subunit, ATPase 1) | 1 | -0.0124 | 81.6 | 3.86 | 33
PSMC1 (proteasome 26S subunit, ATPase 1) | 2 | 1.34 | 109 | 2.95 | 55.7
PSMC1 (proteasome 26S subunit, ATPase 1) | 3 | -1.34 | 55.2 | 3.85 | 22.4
EIF3E (eukaryotic translation initiation factor 3 subunit E) | 1 | -2.06 | 41 | -1.45 | 67.1
EIF3E (eukaryotic translation initiation factor 3 subunit E) | 2 | -1.98 | 42.5 | -2.06 | 81.8
EIF3E (eukaryotic translation initiation factor 3 subunit E) | 3 | -1.97 | 42.7 | -1.74 | 75.4
SMPDL3A (sphingomyelin phosphodiesterase acid like 3A) | 1 | -1.14 | 59.1 | -1.12 | 88.7
SMPDL3A (sphingomyelin phosphodiesterase acid like 3A) | 2 | -1.32 | 55.7 | -1.88 | 102
SMPDL3A (sphingomyelin phosphodiesterase acid like 3A) | 3 | 0.288 | 87.6 | -0.0521 | 99.3
PPM1A (protein phosphatase, Mg2+/Mn2+ dependent 1A) | 1 | 1.5 | 112 | 2.14 | 71
PPM1A (protein phosphatase, Mg2+/Mn2+ dependent 1A) | 2 | -0.941 | 63.2 | 0.436 | 62.9
PPM1A (protein phosphatase, Mg2+/Mn2+ dependent 1A) | 3 | -0.141 | 79.1 | 0.318 | 81.3
LARS1 (leucyl-tRNA synthetase 1) | 1 | 0.343 | 88.7 | 0.296 | 91.7
LARS1 (leucyl-tRNA synthetase 1) | 2 | -0.0198 | 81.5 | -0.428 | 102
LARS1 (leucyl-tRNA synthetase 1) | 3 | -0.084 | 80.2 | -0.375 | 98.9
GUSB (glucuronidase beta) | 1 | -0.513 | 71.7 | -0.617 | 94.2
GUSB (glucuronidase beta) | 2 | 2.54 | 132 | 1.71 | 94.3
GUSB (glucuronidase beta) | 3 | -0.367 | 74.6 | -0.0558 | 84.6
FOXC2 (forkhead box C2) | 1 | 2.17 | 125 | 1.71 | 89.1
FOXC2 (forkhead box C2) | 2 | 0.473 | 91.3 | 0.545 | 88.4
FOXC2 (forkhead box C2) | 3 | -1.12 | 59.6 | -0.957 | 85.7
AP5S1 (adaptor related protein complex 5 subunit sigma 1) | 1 | -1.11 | 59.7 | -0.195 | 70.3
AP5S1 (adaptor related protein complex 5 subunit sigma 1) | 2 | 0.963 | 101 | 0.377 | 102
AP5S1 (adaptor related protein complex 5 subunit sigma 1) | 3 | -0.639 | 69.2 | -0.755 | 94.3
SAMD1 (sterile alpha motif domain containing 1) | 1 | 2.42 | 130 | 1.43 | 99.7
SAMD1 (sterile alpha motif domain containing 1) | 2 | 0.232 | 86.5 | -0.197 | 102
SAMD1 (sterile alpha motif domain containing 1) | 3 | 2.84 | 138 | 1.53 | 103
TAF1D | 1 | 0.628 | 94.4 | -0.421 | 118
TAF1D | 2 | -1.06 | 60.9 | -1.94 | 113
TAF1D | 3 | 0.0819 | 83.5 | -0.911 | 119
PABIR1 | 1 | 0.0539 | 83 | -0.00288 | 92.8
PABIR1 | 2 | 2.23 | 126 | 1.36 | 98.5
PABIR1 | 3 | 0.111 | 84.1 | 0.0985 | 91.6
LMNTD2 (lamin tail domain containing 2) | 1 | -0.179 | 78.3 | 0.228 | 82.4
LMNTD2 (lamin tail domain containing 2) | 2 | -1.6 | 50.1 | -1.2 | 77
LMNTD2 (lamin tail domain containing 2) | 3 | 1.39 | 109 | 2.24 | 67.9

A few values from the entries so far:
Under “luciferase per cell, z-score”, LARS1 (leucyl-tRNA synthetase 1) #2 shows -0.428
Value of LARS1 (leucyl-tRNA synthetase 1) #1 under “viable cells, % of control”: 91.7
Entry for FOXC2 (forkhead box C2) #2 under “total luciferase, z-score”: 0.473
EIF3E (eukaryotic translation initiation factor 3 subunit E) #3, total luciferase, z-score = -1.97
Value of CCR5 (C-C motif chemokine receptor 5) #1 under “total luciferase, % of control”: 72
